# Measured values from the supplement of paper PMC10689618.
# The list shows a part of the results. Single values are uncertain, as repeats are few or missing.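 Primary human fetal astrocytes engulfed labelled rat cortical synaptosomes, measured as a red/green ratio corrected for calcein live-cell signal and scaled to the plate median. Toxicity meant calcein falling over 30%; decreased phagocytosis meant below 70% of median above 5 µM.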
# How the values were obtained:
# [1] = tested on: Human fetal astrocytes; assay: loss of total cells relative to no-compound high-control median (toxicity); higher = more toxic (fewer cells); settings: 24 h
# [2] = tested on: Human fetal astrocytes; assay: synaptosome phagocytosis (pHrodo/calcein intensity ratio) relative to plate median of data wells; higher = more phagocytosis; settings: 24 h
Structure (SMILES),loss of total cells ([1]; 1.39 µM) [%],loss of total cells ([1]; 2.78 µM) [%],loss of total cells ([1]; 5.56 µM) [%],loss of total cells ([1]; 11.11 µM) [%],loss of total cells ([1]; 22.22 µM) [%],synaptosome phagocytosis ([2]; 1.39 µM) [%],synaptosome phagocytosis ([2]; 2.78 µM) [%],synaptosome phagocytosis ([2]; 5.56 µM) [%],synaptosome phagocytosis ([2]; 11.11 µM) [%],synaptosome phagocytosis ([2]; 22.22 µM) [%]
CC(=O)O[C@]1(C)CC[C@@]23C[C@H]1C(C)(C)[C@@H]2CC[C@H]3C,-32.8,1.8,-14.7,8.8,-4.4,97.1,84.5,126,135,115
CCOc1ccc(Cc2nccc3cc(OCC)c(OCC)cc23)cc1OCC,11.2,12.6,25.4,14.6,10.6,86.8,80.7,143,100,86.2
CC(C(=O)O)c1ccc(N2Cc3ccccc3C2=O)cc1 (stereo not given),5.6,-11.2,-7,3.7,18.5,124,122,123,109,121
CN(C)CCN(Cc1ccccc1)c1ccccn1,1.5,-8.5,-6.3,-7.8,2.7,96.5,88.9,90.2,128,106
CN1CC(=O)N2[C@H](c3ccc4c(c3)OCO4)c3[nH]c4ccccc4c3C[C@@H]2C1=O,-36.3,-4.8,-5.6,10.8,0.3,72.6,81,90.1,115,75.7
O=C(NC(Cc1cc(=O)[nH]c2ccccc12)C(=O)O)c1ccc(Cl)cc1 (stereo not given),-3.2,11.9,27.5,19.7,1.5,113,128,141,82.5,107
Nc1ccc(S(=O)(=O)O)cc1.Nc1ccc(S(=O)(=O)O)cc1.[Zn],17.7,-23,-2.5,-1.6,-7.8,148,118,98.8,109,103
O=C1C=CC2=C3c4cc(O)c(O)cc4CC3(O)COC2=C1O (stereo not given),-15.6,12.6,7.3,33.1,36.3,107,131,79.1,128,86.2
CC1=C(/C=C/C(C)=C/C=C/C(C)=C/C=C/C=C(C)/C=C/C=C(C)/C=C/C2=C(C)CCCC2(C)C)C(C)(C)CCC1,-2.5,-14.9,5.7,-9.4,14.7,96.2,85.8,102,92.6,123
C#C[C@]1(O)CC[C@H]2[C@@H]3CCC4=CC(=O)CC[C@@H]4[C@H]3CC[C@@]21C,0,1.5,10.5,-2.3,21.5,87.9,123,96.7,88.1,110
CCCCCC(=O)Cc1cc(O)cc(O)c1C(=O)Oc1cc(CC(=O)CCCCC)c(C(=O)O)c(OC)c1,27.2,2,-18.3,48.4,6.3,149,112,92.1,147,113
CO[C@H]1[C@H](O)[C@@H](O)[C@H](O)[C@H](O)[C@H]1O,-13.9,4,-15.4,-6.8,-11.1,106,101,88.7,127,85.5
CC1Cc2ccccc2N1NC(=O)c1ccc(Cl)c(S(N)(=O)=O)c1 (stereo not given),6.2,-3.1,-16,18.2,-19.8,90.1,124,117,62.4,75.1
O=C(O)c1ccccc1,-31.5,-54,-5.6,-11.5,2.8,88.1,114,105,82.6,118
Cc1cc(O)c(C)c(O)c1C(=O)O,0.4,-8,43.5,36.1,-20.4,90.4,122,126,138,128
COc1c2occc2c(OC)c2c(=O)cc(C)oc12,25.6,26.4,23.9,-2.1,5.3,125,99.1,128,110,101
CC1(C)NC(=O)N(c2ccc([N+](=O)[O-])c(C(F)(F)F)c2)C1=O [Nilutamide],-16.6,-7.6,7.5,-12.5,2.3,105,92.5,88.8,122,81.7
COc1ccc(C(=O)c2ccccc2O)c(O)c1,-2.1,-15.9,-7,0.9,-26.4,108,99,123,71.8,90.8
C[C@@H]1CC[C@H]2C(C)(C)[C@H]3C[C@@]12CC[C@@]3(C)O,6.1,23.5,15.9,12.1,0,106,138,140,100,144

# Four neighbouring entries from above:
Structure (SMILES),loss of total cells ([1]; 1.39 µM) [%],loss of total cells ([1]; 2.78 µM) [%],loss of total cells ([1]; 5.56 µM) [%],loss of total cells ([1]; 11.11 µM) [%],loss of total cells ([1]; 22.22 µM) [%],synaptosome phagocytosis ([2]; 1.39 µM) [%],synaptosome phagocytosis ([2]; 2.78 µM) [%],synaptosome phagocytosis ([2]; 5.56 µM) [%],synaptosome phagocytosis ([2]; 11.11 µM) [%],synaptosome phagocytosis ([2]; 22.22 µM) [%]
Cc1cc(O)c(C)c(O)c1C(=O)O,0.4,-8,43.5,36.1,-20.4,90.4,122,126,138,128
COc1c2occc2c(OC)c2c(=O)cc(C)oc12,25.6,26.4,23.9,-2.1,5.3,125,99.1,128,110,101
CC1(C)NC(=O)N(c2ccc([N+](=O)[O-])c(C(F)(F)F)c2)C1=O [Nilutamide],-16.6,-7.6,7.5,-12.5,2.3,105,92.5,88.8,122,81.7
COc1ccc(C(=O)c2ccccc2O)c(O)c1,-2.1,-15.9,-7,0.9,-26.4,108,99,123,71.8,90.8
